We go through 17 compounds from PubChem BioAssay AID2685 (National Center for Advancing Translational Sciences (NCATS), 2010).

SMILES strings stand for the structures. Some of the results follow. These are further read-outs of the screen, such as a control signal, another cell line or another target. No call is given for them. Most of these compounds were active or inconclusive in the main read-out, so they are no random draw. The note in brackets gives the kind of curve behind each potency; many fits are weak.

The test is described as follows: qHTS Assay for Lipid Storage Modulators in Drosophila S3 Cells.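 On cell number change: cells counted by Cell Tracker Red CMTPX staining in the red channel.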 The note with it: BODIPY lipid droplet fluorescence, 18-24 h; for cell number change: measured here: cell count max response, cells fed with added oleic acid. The procedure, abridged:
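Laser-scanning cytometry quantifies lipid droplet accumulation (500–530 nm total intensity; droplet/cell object ratio) in oleic acid-fed (400 uM added) Drosophila S3 cells treated with a concentration series. 20 uM Triacsin C defined 100% inhibition.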

Setting [1] is: measured here: lipid fluorescence (Fed channel) AC50, cells fed with added oleic acid.
The mark [2] stands for this setting: measured here: cell number channel AC50, cells fed with added oleic acid.

As to `COc1ccccc1N1CCN(C2CCCN(C(=O)COc3ccccc3Cl)C2)CC1` (stereo unspecified), the cell number change was -16.9%. Same read-out and setting: in the case of `COC(=O)C1=C(c2c(C)noc2C)C[C@@H]2CC[C@H]1N2C(=O)NCc1ccc(C(F)(F)F)cc1` it was -4.85%. As to `CC(C)CC(NC(=O)CCCNC(=O)CCC(=O)OC1O[C@H]2OC3(C)CC[C@H]4[C@H](C)CCC(C1C)C24OO3)C(=O)O` (stereo partly specified), the cell number change stood at 30.5%. The AC50 (usually the concentration giving half of the maximal activity seen) under setting [1] was 29.1 µM [rising, single point]. Turning to `CN(C)C(=O)NC(O)C(Cl)(Cl)Cl` (stereo unspecified), the cell number change is -83.7%. The AC50 under setting [2] was 6.51 µM [falling, full curve]. The AC50 under setting [1] was 29.1 µM [falling, single point]. `COc1ccccc1-n1c(-c2ccc(C)cc2)nc2ccccc2c1=O`: the cell number change is -18.1%. For the compound `COc1cc(/C=C/[N+](=O)[O-])ccc1OC(=O)c1cccnc1`, the cell number change was determined as 14.4%. Besides, the AC50 under setting [2] is 0.103 µM [rising, full curve, poor fit]. The half-maximal activity concentration (AC50) under setting [1] is 0.731 µM [falling, full curve, poor fit]. With `S=C=Nc1ccccn1`, the cell number change stood at 58.7%. Further, the AC50 under setting [2] is 18.4 µM [rising, partial curve]. For `CC(=O)c1ccc(OCC(=O)N2CCCC(N(C)Cc3ccccc3)C2)cc1` (stereo unspecified), the AC50 under setting [2] was 0.651 µM [rising, single point].

On to `COC(=O)C1=C(c2ccccc2OCc2ccccc2)C[C@@H]2CC[C@H]1N2C(=O)NCCc1ccc(F)cc1`, for which the cell number change was found to be 11.2%. Also, the AC50 under setting [1] is 0.82 µM [falling, single point]. As for `COC(=O)C1=C(c2ccc(F)cc2OCc2ccccc2)C[C@@H]2CC[C@H]1N2C(=O)NCc1cccc(F)c1`, the cell number change was -3.43%. Besides, the AC50 under setting [1] is 13 µM [falling, partial curve, poor fit].

In the case of `N=c1c[n+](C2CCCCC2)[n-]o1`, the cell number change turned out to be 22.5%. Under setting [2], the AC50 was 3.66 µM [rising, single point]. For the same compound, the AC50 under setting [1] is 0.0259 µM [rising, full curve, poor fit]. Turning to `O=C1NC(=O)C(CCc2ccncc2)(Cc2ccc([N+](=O)[O-])cc2)C(=O)N1`, the cell number change is 22.8%. On the same count and under the same terms, for `Cc1nc2ccccc2c(=O)n1-c1ccc(Cl)cc1[N+](=O)[O-]` the value was -1.51%. Turning to `Cc1nn(Cc2ccccc2)c(Cl)c1C(=O)Nc1ccc(OC(F)(F)F)cc1`, the cell number change was -20.3%. For the same compound, under setting [1], the AC50 is 16.4 µM [falling, single point].

Regarding `COC(=O)C1=C(c2ccc(-c3ccccc3)c(F)c2)C[C@@H]2CC[C@H]1N2C(=O)NCCCOC(C)C`, the cell number change was -6.69%. Moreover, the AC50 under setting [1] was 3.66 µM [rising, partial curve].

Take `O=C(O)C12C3CCCC1C32c1ccccc1` (stereo unspecified): the cell number change stood at 0.151%. Further, the AC50 under setting [1] was 0.82 µM [rising, partial curve, poor fit]. For the compound `CCN(CC)c1ccc(CN(C)CCc2ccc(OC)c(OC)c2)cc1`, the cell number change was 20.6%. Besides, under setting [1], the AC50 was 23.1 µM [rising, partial curve, poor fit].
